About 420 (26%) of roughly 1,600 compounds were called active. The shares of active, inactive and inconclusive entries below differ from those in the screen. Calls follow the shape of the dose curve; as a rule, active = well fitted inhibition curve with a large enough effect; inconclusive = small, poorly fitted or top-dose-only effect; inactive = flat fitted curve, though single readings scatter. Where the call is inconclusive, the potency comes from a doubtful curve fit.
Assay: qHTS for Inhibitors of TGF-b: Cytotox Counterscreen for Cherry Picks; also: nearly all actives have a fitted effect of over 70% in size
Conditions: HepG2 CAGA-GFP viability, ATP luminescence, 18 h, cells stimulated with TGF-beta, 500 pg/mL; series mostly up to 46.1 µM
Summary of the method: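 HepG2 CAGA-GFP cells (1000/well, DMEM with 1% FBS) were pin-dosed with compounds after 2 h, stimulated with TGF-beta at 500 pg/mL final for 18 h at 37 °C, and viability read by CellTiter-Glo luminescence.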
Potency is read from the fitted curve at half-maximal effect.

SMILES | Potency
COc1ccc(/C=N\NC(=O)c2ccccc2[N+](=O)[O-])cc1COc1c(F)c(F)c(F)c(F)c1F | inconclusive: 6.51 µM [inhibitor, partial curve]
CCCSc1nsc(NC(=O)Nc2ccc(F)cc2F)n1 | active: 5.8 µM
Cc1ccc(C(=O)Nc2nc(C)c(C(=O)Nc3ccc4c(c3)CCC4)s2)cc1 | inconclusive: 16.4 µM [inhibitor, single point]
Cc1noc2ncnc(Oc3cc(Cl)ccc3Cl)c12 | inconclusive: 20.6 µM [inhibitor, single point]
CCN(CC)C(=O)[C@H]1C[C@H](CC(=O)NC/C=C(\C)CCC=C(C)C)C(=O)N2CCc3c([nH]c4cc(CCC(=O)N(C)C)ccc34)[C@]12C | inconclusive: 23.1 µM [inhibitor, single point]
Cc1ccc(Cl)cc1N1CCN(C(=S)NCc2ccco2)CC1 | inconclusive: 29.1 µM [inhibitor, single point]
CN1CCC[C@H]1CCNc1ccc2c(=O)c3ccccc3n(C)c2c1 | inconclusive: 20.6 µM [inhibitor, partial curve]
CC(C)(C)OC(=O)[C@H](Cc1ccccc1)NC(=O)c1nc[nH]c1C(=O)N[C@@H](Cc1ccccc1)C(=O)OC(C)(C)C | inconclusive: 10.3 µM [inhibitor, partial curve]
O=S(=O)(CC(CN1CCCCC1)N1CCCCC1)c1ccccc1 (centres undefined) | active: 18.4 µM
COc1ccc(-c2cc(N)n(S(=O)(=O)c3c(F)c(F)c(F)c(F)c3F)n2)cc1OC | active: 8.2 µM
CC(C)(C)OC(=O)N1CCC(NC(=O)c2[nH]cnc2C(=O)Nc2ccccc2)CC1 | inconclusive: 29.1 µM [inhibitor, single point]
CC(C)=CCNc1ncnc2c1c(C#N)cn2C1OC(CO)C(O)C1O (centres undefined) | inconclusive: 0.461 µM [inhibitor, full curve]
OCC1OC(n2ccc3c(NO)ncnc32)C(O)C1O (centres undefined) | active: 0.58 µM
O=CNc1cc(-c2ccoc2)cn2c(-c3ccc(F)cc3)cnc12 | inactive
NC(c1csc(NC(=O)Nc2cccc(C(F)(F)F)c2)n1)C1CCCCC1 (centres undefined) | inconclusive: 29.1 µM [inhibitor, single point]
O=C1Cc2c([nH]c3ccc([N+](=O)[O-])cc23)-c2ccccc2N1 | active: 0.291 µM
O=S(=O)(Nc1cc(Cl)ccc1-n1cncn1)c1cc(Br)ccc1Br | inconclusive: 5.17 µM [inhibitor, partial curve]
C=C(C(=O)c1ccccc1)C(CC(=O)c1ccccc1)c1ccccc1 (centres undefined) | active: 10.3 µM
CC(=O)c1ccc(-c2cnc3c(NC=O)cc(-c4ccc(C(=O)N5CCOCC5)cc4)cn23)cc1 | inconclusive: 5.17 µM [inhibitor, partial curve]
COc1cc(CNCCO)cc(Cl)c1OCc1ccccc1Cl | active: 16.4 µM
Cc1cccc(CS(=O)(=O)c2ncc(Cl)c(C(=O)Nc3ccc(F)cc3)n2)c1 | active: 10.3 µM
Cc1ccc(C)c(N2N=C(C(=O)Nc3ccccc3N3CCCC3)CCC2=O)c1 | inactive

No new results follow: entries from further up.
SMILES | Potency
COc1ccc(/C=N\NC(=O)c2ccccc2[N+](=O)[O-])cc1COc1c(F)c(F)c(F)c(F)c1F | inconclusive: 6.51 µM [inhibitor, partial curve]
CCCSc1nsc(NC(=O)Nc2ccc(F)cc2F)n1 | active: 5.8 µM
Cc1ccc(C(=O)Nc2nc(C)c(C(=O)Nc3ccc4c(c3)CCC4)s2)cc1 | inconclusive: 16.4 µM [inhibitor, single point]

Remaining list, next part.

SMILES | Potency
O=C(c1ccc2c(c1)OCO2)C1CCCN(Cc2ccc(OC(F)F)cc2)C1 (centres undefined) | inconclusive: 8.2 µM [inhibitor, partial curve, poor fit]
O=C1NC(Cc2ccc(O)cc2)c2nc3cc(F)c(F)cc3c(=O)n2-c2cc3ccccc3cc21 (centres undefined) | inconclusive: 29.1 µM [inhibitor, single point]
O=C(Cn1ncc(Cl)c(Cl)c1=O)N1CCN(S(=O)(=O)c2ccc3ccccc3c2)CC1 | active: 2.59 µM
O=C(NCCCCCCNC(=O)c1ccccc1O)c1ccccc1O | inconclusive: 13 µM [inhibitor, partial curve]
CC(C)C[C@H](NC(=O)c1nc[nH]c1C(=O)N1CCN(c2ccccc2)CC1)C(=O)OC(C)(C)C | inactive
Cc1ccccc1NCc1ccc(O)c2ncccc12 | inconclusive: 4.61 µM [inhibitor, full curve]
CC(C)[C@H]1COCCS(=O)(=O)N1Cc1ccccc1-c1cccc2c1oc1ccccc12 | inactive
Cc1cc(C)c(OCC(=O)Nc2nc(-c3ccccn3)cs2)c(C)c1 | inactive
COc1ccc(-c2csc(NC(=O)c3ccccc3NS(=O)(=O)c3ccc(F)c(F)c3)n2)cc1 | active: 1.46 µM
CCOC1=CC2=C(C(=O)C(Cl)=CC2=O)[C@@H]2CN(S(=O)(=O)c3ccc(C)cc3)[C@@H](c3ccccc3)[C@H]12 | inconclusive: 20.6 µM [inhibitor, partial curve]
CC(=Nc1ccccc1)C1=C(O)C(Cc2ccccc2)NC1=O (centres undefined) | inactive
Cc1c(C(=O)OCC(C)C)[nH]c2c1C(=O)CC(c1ccco1)C2 (centres undefined) | inactive
C[C@]12c3[nH]c4cc(-c5ccco5)ccc4c3CCN1C(=O)[C@@H](CC(=O)NCc1cccc(C(F)(F)F)c1)C[C@@H]2C(=O)N1CCCCC1 | inconclusive: 29.1 µM [inhibitor, single point]
CC(Nc1nc(-c2ccc(Cl)cc2)cs1)c1nc2cc(Cl)c(N3CCCCC3)cc2n1CCOCCO (centres undefined) | inconclusive: 20.6 µM [inhibitor, single point]
Cc1cccc(NS(=O)(=O)c2ccc(-c3cnc(C4CC4)o3)cc2)c1 | inconclusive: 18.4 µM [inhibitor, single point]
NC(=S)N=Nc1c(O)n(CCCl)c2ccc(Br)cc12 | inconclusive: 0.92 µM [inhibitor, full curve]
COc1ccc(CC(=O)Nc2ccccc2NC(=O)c2ccco2)cc1OC | inactive
CC(=O)c1ccc(-c2cnc3c(NC=O)cc(-c4ccccc4Oc4ccccc4)cn23)cc1 | inactive
CCCc1cc(-c2[nH]ncc2-c2ccc(C(=O)OCC)o2)c(O)cc1O | inactive
Cc1cc(Nc2nc3ccccc3[nH]c2=O)n(-c2ccccc2)n1 | inactive
Oc1c(N=Nc2nn[nH]n2)ccc2ccccc12 | active: 14.6 µM
CC(=O)Nc1ccc(S(=O)(=O)c2ccnc3cc(Cl)ccc23)cc1 | inconclusive: 18.4 µM [inhibitor, single point]

— PubChem BioAssay AID720535 (National Center for Advancing Translational Sciences (NCATS), 2013)
